These results are taken from publication PMC4872217, “Structural and functional insights into the E3 ligase, RNF126” (Scientific Reports, 2016).

Sequences of proteins named here, by UniProt entry; tags and fusion partners are left off. Residues count along the entry.
UniProt P46379, residues 17-101: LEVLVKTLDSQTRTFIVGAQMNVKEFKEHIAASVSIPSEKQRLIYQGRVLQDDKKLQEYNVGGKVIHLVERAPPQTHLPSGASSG

This test deals with BAG6_UBL (UBL domain of BAG6, residues 17-101) (UniProt P46379). Kind of test: ITC; 500 μM RNF126_NZF (wild-type or mutant) injected into 50 μM BAG6_UBL in the cell; 25 °C; 10 mM potassium phosphate pH 6.0, 100 mM NaCl, 250 μM TCEP; both purified. (In ITC the heat of successive injections is recorded.)

No constants are given. Whether binding was seen depends on the method and setting.

B1: RNF126_NZF H14A mutant (domain or fragment, human, UniProt Q9BV68 1-40, looked up)
chain: MAEASPHPGRYFCACCSVEIVPRLPDYICPRCESGFIEEL
notes: RNF126, human, residues 1-40, with H14A; Made by PCR mutagenesis on pET28-GFP-RNF126 (1-40); in the native PAGE the mutants were GFP tagged; also called His14/Ala; source: E. coli BL21 (DE3), purified
Consider B1, for which the binding entry is “no binding (tested: >50 μM)”.
